These results are taken from article PMC5662751.

By UniProt entry, the sequences of proteins in these tests, tags left out. Where a name states a change or a piece, a line headed by the entry shows the natural chain unless it says otherwise.
UniProt P23246: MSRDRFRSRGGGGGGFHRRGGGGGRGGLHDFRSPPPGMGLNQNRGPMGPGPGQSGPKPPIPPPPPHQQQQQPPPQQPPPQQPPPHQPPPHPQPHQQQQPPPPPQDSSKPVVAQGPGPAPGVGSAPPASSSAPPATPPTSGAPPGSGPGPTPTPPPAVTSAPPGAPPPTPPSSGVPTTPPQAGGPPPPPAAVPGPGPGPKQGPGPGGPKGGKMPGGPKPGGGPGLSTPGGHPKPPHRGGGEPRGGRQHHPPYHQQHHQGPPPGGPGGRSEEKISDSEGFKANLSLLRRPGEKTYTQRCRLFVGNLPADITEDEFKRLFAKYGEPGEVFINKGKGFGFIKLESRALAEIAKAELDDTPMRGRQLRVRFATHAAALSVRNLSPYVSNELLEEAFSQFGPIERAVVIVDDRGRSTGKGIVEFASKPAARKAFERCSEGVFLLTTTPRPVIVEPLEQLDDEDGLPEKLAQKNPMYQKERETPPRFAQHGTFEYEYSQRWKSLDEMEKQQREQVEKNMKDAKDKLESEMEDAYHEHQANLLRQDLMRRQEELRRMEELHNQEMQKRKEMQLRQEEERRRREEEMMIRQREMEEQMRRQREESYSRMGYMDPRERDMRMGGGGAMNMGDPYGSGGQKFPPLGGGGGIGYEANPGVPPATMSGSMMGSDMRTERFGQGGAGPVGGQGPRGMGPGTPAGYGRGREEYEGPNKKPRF
UniProt Q9UKV8, whole entry: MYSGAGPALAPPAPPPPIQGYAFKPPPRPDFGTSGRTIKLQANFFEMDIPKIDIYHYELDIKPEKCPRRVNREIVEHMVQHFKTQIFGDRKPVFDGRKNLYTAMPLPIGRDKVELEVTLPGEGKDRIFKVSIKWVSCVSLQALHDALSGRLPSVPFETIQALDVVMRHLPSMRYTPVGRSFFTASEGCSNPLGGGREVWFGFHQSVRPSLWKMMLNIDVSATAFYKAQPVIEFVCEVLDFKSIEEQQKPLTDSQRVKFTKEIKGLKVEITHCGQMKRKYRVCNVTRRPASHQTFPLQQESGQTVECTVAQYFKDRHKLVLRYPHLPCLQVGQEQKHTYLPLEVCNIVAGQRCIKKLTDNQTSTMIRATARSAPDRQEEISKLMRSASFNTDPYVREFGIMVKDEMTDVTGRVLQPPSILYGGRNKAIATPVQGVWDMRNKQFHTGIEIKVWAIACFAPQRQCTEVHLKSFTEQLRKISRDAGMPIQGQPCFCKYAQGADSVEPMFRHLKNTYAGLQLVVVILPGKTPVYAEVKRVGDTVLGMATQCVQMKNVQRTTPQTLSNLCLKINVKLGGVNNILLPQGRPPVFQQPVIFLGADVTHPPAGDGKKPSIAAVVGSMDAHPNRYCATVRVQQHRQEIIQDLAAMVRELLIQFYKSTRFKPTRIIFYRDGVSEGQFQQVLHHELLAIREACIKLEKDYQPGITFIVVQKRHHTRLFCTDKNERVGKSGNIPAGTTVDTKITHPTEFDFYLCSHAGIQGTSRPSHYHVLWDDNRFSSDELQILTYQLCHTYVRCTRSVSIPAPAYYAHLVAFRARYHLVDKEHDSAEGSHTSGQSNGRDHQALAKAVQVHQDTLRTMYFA

Negatives hold for the conditions tested. At least one verdict rests on a figure or table, not on a statement of the authors. For at least one entry, the source does not settle the construct or the ends of the probe.

One series has as its target Sfpq wild-type (human) (UniProt P23246). The series is described as follows: EMSA. The note with it: EMSA: 75 mM Hepes pH 7.9, 150 mM NaCl, 75 mM KCl, 0.1 mM EDTA, 5 mM DTT, 5 mM PMSF, 15% glycerol, 15 min, room temperature; recombinant protein; residues 1-707; protein details: 6xHis (pET15b); label: 32P. Background: In EMSA bound probe runs differently from free probe, usually more slowly.

The next series concerns the target Ago2 (UniProt Q9UKV8). Nature of the series: EMSA. To be noted: EMSA: 75 mM Hepes pH 7.9, 150 mM NaCl, 75 mM KCl, 0.1 mM EDTA, 5 mM DTT, 5 mM PMSF, 15% glycerol, 15 min, room temperature; commercial protein; label: 32P.

On to CUGUACUGUA [CUGU/CUGUA x2 oligo], for which the binding result with Sfpq wild-type (human) was “binds”; in the series with Ago2, “no binding”.

In the case of CUGACUGA [Motif#1 n2 (CUGA x2)], the binding result in the series with Sfpq wild-type (human) is “binds”; with Ago2, “no binding”.

As for UUGUAUUGUA [Motif#2 n1 (UUGUA x2)], the binding result was “binds” in the series with Sfpq wild-type (human) and “no binding” with Ago2.

Regarding GUGUAGUGUA [Motif#2 n3 (GUGUA x2)], the values for the binding result in the series with Sfpq wild-type (human) and with Ago2 were “binds” and “no binding”, respectively.

In the case of “CCCCGCCCCG [Sfpq negative RNA oligo (CCCCG x2)]”, the binding result with Sfpq wild-type (human) is “no binding”.

Take AUGUAAUGUA [Motif#2 n2 (AUGUA x2)]: the binding result with Sfpq wild-type (human) is recorded as “binds”; with Ago2 it was “no binding”.
